Assay results: patent US8952183B2, “Inhibitors of sialidase or sialidase-like enzymes” (priority 2009, dated 2015)
Like-named read-outs stand apart in the source and are kept apart here. For at least one compound, name, drawing or mass did not settle the structure.

Chains of the proteins cited; added tags and fusions are not shown.
UniProt P03468, whole entry: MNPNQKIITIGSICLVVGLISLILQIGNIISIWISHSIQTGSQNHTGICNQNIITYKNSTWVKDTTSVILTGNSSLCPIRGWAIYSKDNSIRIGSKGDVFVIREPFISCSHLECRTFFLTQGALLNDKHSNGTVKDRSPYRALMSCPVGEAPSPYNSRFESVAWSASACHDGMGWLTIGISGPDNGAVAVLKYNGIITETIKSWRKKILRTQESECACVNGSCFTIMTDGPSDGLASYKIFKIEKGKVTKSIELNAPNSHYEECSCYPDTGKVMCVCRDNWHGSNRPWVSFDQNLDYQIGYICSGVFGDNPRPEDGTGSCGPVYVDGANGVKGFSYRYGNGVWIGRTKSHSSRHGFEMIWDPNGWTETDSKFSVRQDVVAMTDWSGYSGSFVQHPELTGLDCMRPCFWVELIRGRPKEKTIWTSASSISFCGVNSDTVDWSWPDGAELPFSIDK

Tests used:
[1] = target: influenza A neuraminidase (N1) (Influenza A virus, UniProt P03468); type: biochemical; details: MUNANA, 60 min at 37° C.
[2] = system: all 3 classes of neuraminidases; details: Colman, 1999; cited from earlier work

| Structure (SMILES) | Fluorescence Observed ([1]; inhibitor concentration 0.0005 μg/ml) | Fluorescence Observed ([1]; inhibitor concentration 0.005 μg/ml) | Fluorescence Observed ([1]; inhibitor concentration 0.05 μg/ml) | Fluorescence Observed ([1]; inhibitor concentration 0.5 μg/ml) | Fluorescence Observed ([1]; inhibitor concentration 5 μg/ml) | Fluorescence Observed ([1]; inhibitor concentration 50 μg/ml) | Fluorescence Observed ([1]; inhibitor concentration 200 μg/ml) | Fluorescence Observed ([1]; inhibitor concentration 500 μg/ml) | potency against all 3 classes of neuraminidases [2] |
| --- | --- | --- | --- | --- | --- | --- | --- | --- | --- |
| O=C(O)C1=CC(=C(c2ccc(O)c(C(=O)O)c2)c2ccc(O)c(C(=O)O)c2)C=CC1=O [ATA, Aurintricarboxylic acid] | 15741 | 15340 | 15079 | 14914 | 10543 | 2726 | 807 | 378 | – |
| CC(=O)N[C@H]1C([C@H](O)[C@H](O)CO)OC(C(=O)O)=C[C@H]1O (stereo partly drawn) [Compound 12, 5-acetamido-3,5-dideoxy-D-glycero-D-galacto-non-2-enonate] | – | – | – | – | – | – | – | – | modest potency |
